Test results as given in PMC8327856.
Results are given in words; binding and its absence hold for the method and conditions named. Binding seen in cells or lysates may run through a third protein. Some results given as binding are weak or reduced against the parent protein; the word gives no strength.

Protein sequences, listed by entry. Tags and fused reporters are not part of them.
UniProt Q62441: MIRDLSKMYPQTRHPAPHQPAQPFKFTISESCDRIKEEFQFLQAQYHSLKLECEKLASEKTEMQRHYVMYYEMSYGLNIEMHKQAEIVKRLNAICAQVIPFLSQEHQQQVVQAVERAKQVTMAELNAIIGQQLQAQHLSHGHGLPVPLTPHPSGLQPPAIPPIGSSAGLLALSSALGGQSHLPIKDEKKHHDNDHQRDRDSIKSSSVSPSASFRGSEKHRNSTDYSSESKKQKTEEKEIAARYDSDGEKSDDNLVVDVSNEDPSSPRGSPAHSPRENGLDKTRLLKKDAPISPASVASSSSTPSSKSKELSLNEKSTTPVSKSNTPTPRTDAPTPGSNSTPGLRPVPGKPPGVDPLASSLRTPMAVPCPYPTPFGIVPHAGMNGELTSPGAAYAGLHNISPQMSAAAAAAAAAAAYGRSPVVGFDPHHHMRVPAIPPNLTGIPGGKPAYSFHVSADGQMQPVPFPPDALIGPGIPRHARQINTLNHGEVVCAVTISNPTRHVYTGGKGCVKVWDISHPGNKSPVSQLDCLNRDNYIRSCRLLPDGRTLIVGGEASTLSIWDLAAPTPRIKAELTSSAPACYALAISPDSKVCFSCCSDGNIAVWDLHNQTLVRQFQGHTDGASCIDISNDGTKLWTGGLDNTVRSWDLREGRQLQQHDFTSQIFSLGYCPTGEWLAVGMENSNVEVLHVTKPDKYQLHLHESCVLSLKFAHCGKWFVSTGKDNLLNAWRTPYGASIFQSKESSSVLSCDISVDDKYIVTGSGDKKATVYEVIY
UniProt Q9ESP5: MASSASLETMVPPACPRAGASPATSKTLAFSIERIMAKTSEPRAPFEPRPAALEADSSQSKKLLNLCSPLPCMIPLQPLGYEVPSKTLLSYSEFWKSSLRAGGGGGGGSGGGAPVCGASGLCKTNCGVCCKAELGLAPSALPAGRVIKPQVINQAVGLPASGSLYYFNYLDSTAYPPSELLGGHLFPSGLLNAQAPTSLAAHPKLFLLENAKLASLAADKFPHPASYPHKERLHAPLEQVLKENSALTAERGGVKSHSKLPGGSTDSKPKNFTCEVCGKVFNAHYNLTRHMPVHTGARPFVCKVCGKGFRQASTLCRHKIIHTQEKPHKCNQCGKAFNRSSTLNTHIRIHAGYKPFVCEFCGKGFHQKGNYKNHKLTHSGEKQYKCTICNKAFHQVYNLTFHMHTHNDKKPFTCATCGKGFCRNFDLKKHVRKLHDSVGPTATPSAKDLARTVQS

Biological target: TLE4-FLAG-MYC (mouse TLE4) (mouse) (UniProt Q62441)
Assay: co-IP; Neuro-2a cells co-transfected with Fezf2-his-myc, Tle4-flag-myc and GFP-his-myc; nuclear extract (Active Motif Nuclear Complex Co-IP kit); immunoprecipitated overnight at 4°C with Flag beads or GFP antibody; eluted with 0.1 M glycine pH 2.5; Western blot

binding: binds
Substance: FEZF2-HIS-MYC (mouse FEZF2) (from UniProt Q9ESP5 1-455)
